Test system: SARS-CoV-2 FSE (−1 PRF)
Assay: cells
Assay type: cell-based
Settings: Severe acute respiratory syndrome coronavirus 2, HEK-293T, 24 h

Compound: Cc1cc(/C=C/c2ccc3cc(N(C)C)ccc3[n+]2C)c(C)n1-c1ccccc1 [PYRVINIUM PAMOATE]
- inhibition at 10 µM (read-out: PERCENT EFFECT 2 (Decreased GFP/Red ratio)): 112%
- activation at 10 µM (read-out: PERCENT EFFECT (Increased GFP/Red Ratio)): -58.2%

— US20230364074A1, “Compounds and Compositions for Disrupting Programmed Ribosomal Frameshifting” (YALE UNIVERSITY, priority 2020, published 2023)
